# Source: PMC8157044
# By UniProt entry, the sequences of proteins in these tests, tags left out. Where a name states a change or a piece, a line headed by the entry shows the natural chain unless it says otherwise. Residues count along the entry.
# UniProt Q15075, residues 36-218: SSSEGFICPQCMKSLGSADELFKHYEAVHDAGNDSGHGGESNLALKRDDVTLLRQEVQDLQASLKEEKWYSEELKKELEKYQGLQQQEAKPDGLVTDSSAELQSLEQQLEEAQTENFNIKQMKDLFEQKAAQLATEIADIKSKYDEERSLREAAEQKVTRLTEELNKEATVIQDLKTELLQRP
# UniProt P07339: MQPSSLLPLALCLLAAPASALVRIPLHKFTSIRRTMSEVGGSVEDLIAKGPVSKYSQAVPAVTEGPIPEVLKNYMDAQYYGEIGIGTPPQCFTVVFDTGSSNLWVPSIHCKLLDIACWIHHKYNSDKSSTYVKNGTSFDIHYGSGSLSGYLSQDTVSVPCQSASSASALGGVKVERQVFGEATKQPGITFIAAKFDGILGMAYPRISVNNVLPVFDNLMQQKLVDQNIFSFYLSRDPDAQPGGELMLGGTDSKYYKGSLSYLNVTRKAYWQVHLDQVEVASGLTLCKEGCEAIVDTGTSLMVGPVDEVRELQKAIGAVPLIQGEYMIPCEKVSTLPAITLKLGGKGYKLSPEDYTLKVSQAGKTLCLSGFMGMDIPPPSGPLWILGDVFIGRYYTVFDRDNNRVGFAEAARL
# These are yes or no findings as the source states them, for the method shown. In cells and extracts the contact can be indirect.
# Target: GST-EEA1-Rab5-GTP-binding domain (human) (UniProt Q15075)
# Test: pull-down; GST-EEA1-Rab5BD (4 μg) added to 800 μL postnuclear supernatant of U87MG cells (serum-starved, or PDGF-BB 50 ng/mL for 5 min; lysed by needle passage in 250 mM sucrose, 3 mM imidazole pH 7.4, 0.5 mM EDTA, no detergent), overnight at 4 °C, then Glutathione-Sepharose-4B beads 2 h at 4 °C, five washes, immunoblot; meant to isolate Rab5-GTP early endosomes; only the target purified
substance,measurement,value
cathepsin D (from UniProt P07339),binding,no binding (tested: 4 μg GST-EEA1-RBD in 800 μL PNS)
